Our source for the binding values is PMC4643883.

The chains behind the UniProt entries cited, without tags or fusion partners.
UniProt P05205: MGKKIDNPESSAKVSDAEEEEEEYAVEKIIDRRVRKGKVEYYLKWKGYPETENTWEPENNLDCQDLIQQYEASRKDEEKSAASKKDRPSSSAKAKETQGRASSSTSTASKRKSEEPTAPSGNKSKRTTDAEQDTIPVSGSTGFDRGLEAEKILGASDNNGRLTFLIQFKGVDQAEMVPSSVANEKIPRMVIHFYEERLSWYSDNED

Results are given in words; binding and its absence hold for the method and conditions named. Some entries that bind do so weakly or less than the wild type.

The target of the experiment is Heterochromatic Protein 1 (HP1), D. melanogaster (Drosophila melanogaster) (UniProt P05205). As to the kind of experiment: co-elution from heparin-sepharose; the four co-expressed proteins supplemented with samples of HipHop obtained from a larger volume; heparin-sepharose.

B1: HP1-HOAP interacting protein (HipHop), D. melanogaster (protein, UniProt Q7JWP6 1-221)
chain: MASIDEGSRVERRFCAVGNHTLRKPYRQLNNKYLVRFACLLNSEIRAGNLICCKCYTDLVRLYRKKNDNAKRHKMARETAASITDVSGSQSSSHQSAPSLHVSGQSSEFGASYSEGGIVTPDEELCSHRSLSQDSDNVPTTSAAAIQKRQLARANLMVKPSQRLSLAQTTPDCDDYDPNSNLSLNAVNGTRLPHIQPIPKRRPTVLDKQSMDIYLMGTTGG
For B1, the binding entry was “binds”.
